The list shows a part of the results, in another mix than the full data. For part of these data: At the low end of the ranking the order means little. The list shows a part of the results. For part of these data: Construct or isoform of the protein are uncertain.

Chains of the proteins cited; added tags and fusions are not shown. Lines headed by an entry give the natural chain unless they say otherwise; changes in a name come on top.
UniProt Q00613: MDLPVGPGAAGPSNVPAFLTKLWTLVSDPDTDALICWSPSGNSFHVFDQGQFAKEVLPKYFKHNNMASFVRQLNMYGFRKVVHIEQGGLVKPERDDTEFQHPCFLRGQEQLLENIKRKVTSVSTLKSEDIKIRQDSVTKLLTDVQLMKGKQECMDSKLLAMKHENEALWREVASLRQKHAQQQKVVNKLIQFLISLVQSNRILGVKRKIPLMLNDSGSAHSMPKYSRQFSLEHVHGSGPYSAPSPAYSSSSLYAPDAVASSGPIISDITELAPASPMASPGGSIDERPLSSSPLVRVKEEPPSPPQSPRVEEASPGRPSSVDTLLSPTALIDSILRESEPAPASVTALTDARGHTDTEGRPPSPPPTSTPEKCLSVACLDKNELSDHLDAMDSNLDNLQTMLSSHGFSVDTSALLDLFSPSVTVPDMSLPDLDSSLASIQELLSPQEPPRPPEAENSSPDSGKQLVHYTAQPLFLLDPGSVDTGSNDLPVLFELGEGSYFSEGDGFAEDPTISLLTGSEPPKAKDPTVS

Drawing on PMC7862700, this text covers binding signal for 57 sequences.

The target in one experiment is HSF1 (UniProt Q00613). The experiment in a line: DAPPL (digital affinity profiling via proximity ligation, sequencing). Conditions: 10 mM Tris-HCl pH 7.5, 50 mM NaCl, 1 mM DTT, 4% glycerol, room temperature, 30 min; GST-TFs on glutathione beads, 16-mer random dsDNA library, 0.1% …; high values mean tight binding; double strand, one strand shown; scale: fold enrichment (6-mer frequency, TF over GST control).

Another experiment deals with T1, ELF2 (UniProt Q15723).
T1 sequence: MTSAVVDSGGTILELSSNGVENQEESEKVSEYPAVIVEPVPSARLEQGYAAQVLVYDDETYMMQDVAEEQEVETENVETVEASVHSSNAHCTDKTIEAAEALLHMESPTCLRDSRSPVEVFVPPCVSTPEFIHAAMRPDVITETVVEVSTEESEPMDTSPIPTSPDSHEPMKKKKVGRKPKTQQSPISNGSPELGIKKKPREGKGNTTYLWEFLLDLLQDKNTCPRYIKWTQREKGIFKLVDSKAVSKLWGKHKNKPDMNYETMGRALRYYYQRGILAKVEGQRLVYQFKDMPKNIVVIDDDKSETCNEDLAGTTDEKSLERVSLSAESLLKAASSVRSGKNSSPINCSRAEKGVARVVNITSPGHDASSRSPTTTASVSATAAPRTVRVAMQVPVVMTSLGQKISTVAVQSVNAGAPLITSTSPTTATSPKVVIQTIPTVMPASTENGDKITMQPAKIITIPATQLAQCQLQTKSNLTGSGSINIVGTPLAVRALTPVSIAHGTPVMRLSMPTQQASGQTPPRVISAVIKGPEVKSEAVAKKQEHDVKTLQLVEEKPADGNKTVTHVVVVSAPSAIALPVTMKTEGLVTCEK
The experiment is described as above. Conditions: 10 mM Tris-HCl pH 7.5, 50 mM NaCl, 1 mM DTT, 4% glycerol, room temperature, 30 min; GST-TFs on glutathione beads, 16-mer random dsDNA library, 0.1% …; high values mean tight binding; double strand, one strand shown; scale: fold enrichment (6-mer frequency, TF over GST control).

Consider TAGTGG, for which the binding signal amounted to 1.33 with HSF1 and 1.12 with ELF2.

On to TGACAT, for which the binding signal turned out to be 1.01 with HSF1 and 1.2 with ELF2.

Regarding TTCAGA, the figures for the binding signal with HSF1 and with ELF2 were 1.09 and 0.927, respectively.

GAAACC: the values for the binding signal in the experiment with HSF1 and with ELF2 were 0.807 and 1.09, respectively.

Regarding GTTTGT, the results for the binding signal with HSF1 and with ELF2 were 0.822 and 1.03, respectively.

With GCCGTC, the figures for the binding signal with HSF1 and with ELF2 were 0.846 and 0.879, respectively.

TTGTTG: the binding signal with HSF1 was found to be 0.998; with ELF2, 1.08.

GTTACC: the binding signal amounted to 0.805 in the experiment with HSF1 and 1.06 with ELF2.

Regarding AGGCAC, the binding signal with HSF1 amounted to 0.705; in the experiment with ELF2 it was 0.814.

Regarding CCATGG, the binding signal with HSF1 was 0.941; with ELF2, 0.873.

Regarding GCAGAT, the binding signal with HSF1 amounted to 0.958; with ELF2, 0.867.

Take AACGCG: the binding signal with HSF1 stood at 0.943; with ELF2 it was 1.01.

Take ACGCGG: the binding signal with HSF1 was determined as 0.737; in the experiment with ELF2, 1.17.

Turning to ACGCTT, the results for the binding signal with HSF1 and in the experiment with ELF2 were 1.22 and 1.41, respectively.

TAACGC: the figures for the binding signal with HSF1 and with ELF2 were 1.28 and 1.12, respectively.

Consider CTGGGC, for which the binding signal with HSF1 is 0.949; with ELF2 it was 1.01.

On to TAGGAA, for which the binding signal in the experiment with HSF1 is 1.11; in the experiment with ELF2 it was 1.38.

TACGGT: the binding signal with HSF1 turned out to be 0.896; with ELF2, 0.97.

As to CCACGA, the binding signal with HSF1 is 1.12; in the experiment with ELF2 it was 1.08.

Regarding AACTGG, the results for the binding signal with HSF1 and with ELF2 were 1.25 and 1.21, respectively.

Turning to AGCTGC, the results for the binding signal with HSF1 and with ELF2 were 1.04 and 1.07, respectively.

For the sequence TGGGTG, the binding signal in the experiment with HSF1 is 0.828; with ELF2, 0.922.

Consider TTATGG, for which the binding signal in the experiment with HSF1 was 1.74; with ELF2 it was 1.27.

With CTGTAG, the binding signal with HSF1 came to 0.944; with ELF2, 0.905.

As to TGCAGC, the figures for the binding signal with HSF1 and in the experiment with ELF2 were 0.872 and 0.983, respectively.

Turning to CTACTA, the binding signal was 1.43 with HSF1 and 1.25 in the experiment with ELF2.

In the case of GTCCCG, the binding signal in the experiment with HSF1 was determined as 0.997; with ELF2 it was 1.18.

On to ACGATG, for which the binding signal is 0.916 with HSF1 and 1.05 with ELF2.

For CTGGCG, the values for the binding signal in the experiment with HSF1 and with ELF2 were 0.768 and 0.851, respectively.

Regarding TGTCCG, the binding signal is 0.898 in the experiment with HSF1 and 1.6 with ELF2.

GTGCGC: the binding signal stood at 0.796 with HSF1 and 1 with ELF2.

As for TACCCC, the binding signal stood at 0.866 in the experiment with HSF1 and 1.1 with ELF2.

In the case of GCAGCT, the binding signal is 0.974 in the experiment with HSF1 and 1.01 with ELF2.

CCCCAA: the results for the binding signal with HSF1 and with ELF2 were 1.06 and 1.11, respectively.

Regarding CTACAA, the binding signal with HSF1 was found to be 1.16; with ELF2 it was 1.12.

As to TACAAC, the binding signal with HSF1 amounted to 0.971; with ELF2 it was 1.12.

As to TATTTT, the binding signal in the experiment with HSF1 was found to be 1.5; in the experiment with ELF2, 1.33.

With CAATGT, the binding signal with HSF1 amounted to 0.89; in the experiment with ELF2 it was 0.987.

As for GTTGAT, the binding signal was 0.935 with HSF1 and 1.04 in the experiment with ELF2.

Consider GCAATG, for which the binding signal was 0.78 with HSF1 and 0.968 with ELF2.

As for TATGAC, the binding signal in the experiment with HSF1 is 1.18; with ELF2, 1.2.

Turning to AAAGTA, the results for the binding signal with HSF1 and with ELF2 were 1.29 and 1.13, respectively.

Take GATGCG: the binding signal is 0.895 with HSF1 and 1.17 with ELF2.

As for CGGCAT, the binding signal with HSF1 is 0.922; with ELF2, 1.11.

Regarding TTGGGC, the binding signal worked out at 0.876 with HSF1 and 1.04 with ELF2.

Consider CAGTTC, for which the binding signal was 0.771 in the experiment with HSF1 and 1.1 in the experiment with ELF2.

CCATAC: the binding signal with HSF1 worked out at 0.944; with ELF2, 1.13.

With CTCATA, the binding signal with HSF1 stood at 1.25; in the experiment with ELF2, 1.32.

For the sequence CACTCA, the binding signal came out at 0.922 with HSF1 and 1.12 with ELF2.

With TGTGGC, the binding signal with HSF1 is 0.848; in the experiment with ELF2 it was 0.992.

For ACCCTG, the binding signal in the experiment with HSF1 was 0.94; in the experiment with ELF2, 0.996.

With AGGACC, the binding signal with HSF1 was 0.925; with ELF2 it was 1.03.

With AAACGA, the binding signal with HSF1 stood at 1.09; in the experiment with ELF2, 1.07.

For the sequence GAATGT, the binding signal in the experiment with HSF1 turned out to be 1.88; with ELF2 it was 1.07.

With TGTTCC, the binding signal is 1.85 with HSF1 and 2.19 with ELF2.

As for GCCCAT, the binding signal with HSF1 worked out at 0.819; with ELF2, 0.953.

For the sequence TGTGAT, the binding signal with HSF1 came to 0.916; with ELF2 it was 0.953.
